PubChem BioAssay AID652243, Drosophila RNAi Screening Center | 2013

- Purpose: 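Fly genes required for human androgen receptor driven transcription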 (primary screen)
- Cell system: Drosophila S2R+ cells
- Reagent: long dsRNA against Drosophila genes
- Duration: 72 h (48 h, then 24 h hormone)
- Challenge: synthetic androgen R1881 at 10 nM for 24 h
- Read-out: 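Per-well raw luminescence of the androgen-driven firefly reporter and of the Renilla control, two replicates each, without normalisation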
- Scale: firefly reporter light: higher = more light from androgen-responsive reporter; Renilla control light: higher = more constitutive control signal (cell number, transfection)
- Hit rule: 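Hit when the log firefly-to-Renilla ratio dropped or increased by a fixed fold versus the mean of GFP or LacZ controls across duplicate plates; lowering cut given as 1.5 and as 3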
- Calls: active = hit: reporter lowered or raised; inactive = no hit
In all, the deposit lists about 24,000 reagents; this is a random part of those that have a named target and a result. Over the whole deposit, 246 (1%) are marked active. 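Plates not normalised; calls are printed but the firefly/Renilla ratio behind them is not deposited; fold cut for lowering reported inconsistently.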 Raw values are not corrected between plates. A number with no mark means an inactive call. The numbers tell different reagents against one gene apart. A plus sign joins genes that one reagent is predicted to hit. Not stated in the record: the amount of reagent.

target | dsRNA no. | firefly reporter light, replicate 1 | firefly reporter light, replicate 2 | Renilla control light, replicate 1 | Renilla control light, replicate 2
CG4660 (GeneID 31542) | 1 | 3.33e5 | 4.11e5 | 2.31e6 | 2.37e6
CG43759 (GeneID 32889) | 1 | 1.44e5 | 1.40e5 | 6.84e5 | 6.62e5
CG43759 (GeneID 32889) | 2 | 1.03e5 | 74874 | 5.02e5 | 2.55e5
CG43759 (GeneID 32889) | 3 | 3.10e5 | 3.46e5 | 4.67e5 | 7.61e5
hll (GeneID 34822) | 1 | 6.99e5 | 9.48e5 | 1.18e6 | 1.16e6
Nup153 (GeneID 32630) | 1 | 76510 (active) | 1.42e5 | 1.39e6 | 1.82e6
CG34194 (GeneID 5740534) | 1 | 1.78e5 | 2.10e5 | 2.86e5 | 3.34e5
CG4069 (GeneID 39437) | 1 | 1.27e6 | 6.82e5 | 1.21e6 | 1.10e6
GABPI (GeneID 33516) | 1 | 8.31e5 | 9.87e5 | 1.76e6 | 1.36e6
GABPI (GeneID 33516) | 2 | 2.34e5 | 2.29e5 | 5.61e5 | 8.63e5
CG10822 (GeneID 37274) | 1 | 50223 | 59462 | 7.59e5 | 7.63e5
CG11726 (GeneID 39275) | 1 | 1.91e5 | 2.46e5 | 2.02e6 | 1.57e6
CG8353 (GeneID 34123) | 1 | 1.64e5 | 2.06e5 | 1.29e6 | 1.93e6
CG8353 (GeneID 34123) | 2 | 2.74e5 | 2.16e5 | 5.28e5 | 5.94e5
Mhc (GeneID 35007) | 1 | 1.09e5 | 1.36e5 | 1.26e6 | 1.35e6
Mhc (GeneID 35007) | 2 | 4.10e5 | 3.47e5 | 1.11e6 | 9.45e5
aqrs (GeneID 43396) | 1 | 1.91e5 | 2.07e5 | 1.90e6 | 2.85e6
Lpin (GeneID 35790) | 1 | 7.61e5 | 7.17e5 | 1.68e6 | 1.70e6
CG33796 (GeneID 3771914) | 1 | 9.23e5 | 6.74e5 | 2.34e6 | 1.47e6
Nup214 (GeneID 46091) | 1 | 5.50e5 | 6.37e5 | 1.17e6 | 7.59e5
tacc (GeneID 40589) | 1 | 2.49e5 | 73858 | 4.57e5 | 1.64e5
tacc (GeneID 40589) | 2 | 8.38e5 | 8.77e5 | 1.57e6 | 1.86e6
tacc (GeneID 40589) | 3 | 3.83e5 | 3.82e5 | 1.71e6 | 1.28e6
svp (GeneID 41491) | 1 | 83374 | 48909 | 1.82e5 | 1.50e5
svp (GeneID 41491) | 2 | 4.91e5 | 5.30e5 | 3.07e6 | 2.95e6
svp (GeneID 41491) | 3 | 2.53e5 | 2.39e5 | 4.28e5 | 5.36e5
CG15023 (GeneID 38550) | 1 | 1.51e5 | 1.55e5 | 1.67e6 | 2.17e6
CG15023 (GeneID 38550) | 2 | 6.98e5 | 6.57e5 | 6.83e5 | 6.61e5
CG5793 + Obp93a | 1 | 3.55e5 | 3.47e5 | 3.13e6 | 3.54e6

Quoted from the entries so far, 7 entries:
target | dsRNA no. | firefly reporter light, replicate 1 | firefly reporter light, replicate 2 | Renilla control light, replicate 1 | Renilla control light, replicate 2
Nup214 (GeneID 46091) | 1 | 5.50e5 | 6.37e5 | 1.17e6 | 7.59e5
tacc (GeneID 40589) | 1 | 2.49e5 | 73858 | 4.57e5 | 1.64e5
tacc (GeneID 40589) | 2 | 8.38e5 | 8.77e5 | 1.57e6 | 1.86e6
tacc (GeneID 40589) | 3 | 3.83e5 | 3.82e5 | 1.71e6 | 1.28e6
svp (GeneID 41491) | 1 | 83374 | 48909 | 1.82e5 | 1.50e5
svp (GeneID 41491) | 2 | 4.91e5 | 5.30e5 | 3.07e6 | 2.95e6
svp (GeneID 41491) | 3 | 2.53e5 | 2.39e5 | 4.28e5 | 5.36e5

The listing continues:
target | dsRNA no. | firefly reporter light, replicate 1 | firefly reporter light, replicate 2 | Renilla control light, replicate 1 | Renilla control light, replicate 2
hog (GeneID 318105) | 1 | 1.13e6 | 3.99e5 | 9.53e5 | 4.84e5
hog (GeneID 318105) | 2 | 4.02e5 | 3.69e5 | 6.85e5 | 6.53e5
salm (GeneID 34569) | 1 | 2.15e5 | 2.48e5 | 1.94e6 | 1.51e6
salm (GeneID 34569) | 2 | 4.79e5 | 4.47e5 | 1.03e6 | 1.08e6
Fer3HCH (GeneID 32260) | 1 | 4.57e5 | 3.58e5 | 4.58e6 | 3.59e6
Fer3HCH (GeneID 32260) | 2 | 3.59e5 | 4.03e5 | 5.69e5 | 5.47e5
swa (GeneID 31580) | 1 | 1.20e5 | 1.12e5 | 7.88e5 | 5.76e5
swa (GeneID 31580) | 2 | 4.45e5 | 5.95e5 | 7.39e5 | 5.21e5
Or23a (GeneID 33450) | 1 | 1.14e6 | 1.09e6 | 1.76e6 | 1.85e6
Adgf-C (GeneID 41680) | 1 | 48872 | 74303 | 1.87e6 | 2.22e6
Adgf-C (GeneID 41680) | 2 | 4.87e5 | 4.14e5 | 7.89e5 | 5.18e5
CG17068 (GeneID 33024) | 1 | 66638 | 45196 | 3.07e5 | 3.94e5
GstE5 (GeneID 37110) | 1 | 2.53e5 | 2.68e5 | 2.59e6 | 2.51e6
alien (GeneID 34225) | 1 | 1.04e6 | 4.14e5 | 2.16e6 | 1.03e6
dwg (GeneID 31265) | 1 | 1.99e5 | 1.18e5 | 9.11e5 | 6.34e5
dwg (GeneID 31265) | 2 | 6.85e5 | 5.82e5 | 1.06e6 | 9.78e5
CG32457 (GeneID 318040) | 1 | 6.51e5 | 7.17e5 | 1.03e6 | 1.63e6
ATPsynD (GeneID 42291) | 1 | 2.41e5 | 2.46e5 | 2.02e6 | 2.20e6
ATPsynD (GeneID 42291) | 2 | 1.07e5 | 62682 | 1.33e5 | 85726
Gcat (GeneID 39333) | 1 | 2.26e5 | 2.11e5 | 2.17e6 | 2.28e6
Gcat (GeneID 39333) | 2 | 4.65e5 | 4.14e5 | 7.69e5 | 9.12e5
Sgs1 (GeneID 33701) | 1 | 1.11e5 | 1.56e5 | 1.73e6 | 1.01e6
CG14455 (GeneID 40480) | 1 | 1.61e5 | 1.56e5 | 1.43e6 | 1.90e6
CG14455 (GeneID 40480) | 2 | 3.10e5 | 2.38e5 | 1.21e6 | 1.29e6
cindr (GeneID 43654) | 1 | 63302 | 72093 | 6.83e5 | 4.88e5
clu (GeneID 36793) | 1 | 1.04e6 | 5.17e5 | 7.14e5 | 4.70e5
clu (GeneID 36793) | 2 | 3.88e5 | 3.97e5 | 1.05e6 | 1.29e6
Pgm2b (GeneID 36649) | 1 | 6.91e5 | 9.70e5 | 2.20e6 | 2.31e6
Pgm2b (GeneID 36649) | 2 | 3.21e5 | 2.37e5 | 7.55e5 | 6.61e5
